In paper PMC5549762:
These are yes or no findings as the source states them, for the method shown. In cells and extracts the contact can be indirect. These calls come from enrichment with a bait or labelling near it, and not all partners need be listed.

The chains behind the UniProt entries cited, without tags or fusion partners. Where a name states a change or a piece, a line headed by the entry shows the natural chain unless it says otherwise. Residues count along the entry.
UniProt Q9NKV0: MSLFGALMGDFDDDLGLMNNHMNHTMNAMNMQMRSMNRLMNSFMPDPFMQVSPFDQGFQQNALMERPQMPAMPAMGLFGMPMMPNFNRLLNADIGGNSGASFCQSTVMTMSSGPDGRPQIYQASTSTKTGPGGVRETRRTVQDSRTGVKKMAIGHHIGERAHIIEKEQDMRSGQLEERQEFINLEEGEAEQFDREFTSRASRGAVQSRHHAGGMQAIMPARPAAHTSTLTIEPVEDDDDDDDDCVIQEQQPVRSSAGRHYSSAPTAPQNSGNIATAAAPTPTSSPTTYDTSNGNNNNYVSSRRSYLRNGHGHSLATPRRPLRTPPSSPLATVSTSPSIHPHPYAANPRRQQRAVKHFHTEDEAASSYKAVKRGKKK
UniProt P29844, residues 19-656: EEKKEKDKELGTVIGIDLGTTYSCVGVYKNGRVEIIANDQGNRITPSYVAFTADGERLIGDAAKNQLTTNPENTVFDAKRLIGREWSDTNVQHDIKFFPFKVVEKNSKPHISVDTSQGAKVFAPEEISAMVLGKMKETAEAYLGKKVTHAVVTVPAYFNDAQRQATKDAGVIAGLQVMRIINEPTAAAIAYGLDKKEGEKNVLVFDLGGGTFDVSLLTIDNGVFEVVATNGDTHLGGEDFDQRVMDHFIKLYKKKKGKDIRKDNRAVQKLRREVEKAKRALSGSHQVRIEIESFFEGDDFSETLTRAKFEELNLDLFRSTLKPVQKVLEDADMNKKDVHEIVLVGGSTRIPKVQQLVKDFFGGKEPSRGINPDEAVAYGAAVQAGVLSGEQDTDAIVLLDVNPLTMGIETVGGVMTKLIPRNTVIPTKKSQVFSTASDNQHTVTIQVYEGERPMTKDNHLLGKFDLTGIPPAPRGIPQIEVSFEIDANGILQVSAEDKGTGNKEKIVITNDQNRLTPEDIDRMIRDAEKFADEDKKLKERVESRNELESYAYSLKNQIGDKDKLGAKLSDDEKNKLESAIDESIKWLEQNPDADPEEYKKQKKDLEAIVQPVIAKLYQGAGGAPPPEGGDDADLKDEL
UniProt P11147: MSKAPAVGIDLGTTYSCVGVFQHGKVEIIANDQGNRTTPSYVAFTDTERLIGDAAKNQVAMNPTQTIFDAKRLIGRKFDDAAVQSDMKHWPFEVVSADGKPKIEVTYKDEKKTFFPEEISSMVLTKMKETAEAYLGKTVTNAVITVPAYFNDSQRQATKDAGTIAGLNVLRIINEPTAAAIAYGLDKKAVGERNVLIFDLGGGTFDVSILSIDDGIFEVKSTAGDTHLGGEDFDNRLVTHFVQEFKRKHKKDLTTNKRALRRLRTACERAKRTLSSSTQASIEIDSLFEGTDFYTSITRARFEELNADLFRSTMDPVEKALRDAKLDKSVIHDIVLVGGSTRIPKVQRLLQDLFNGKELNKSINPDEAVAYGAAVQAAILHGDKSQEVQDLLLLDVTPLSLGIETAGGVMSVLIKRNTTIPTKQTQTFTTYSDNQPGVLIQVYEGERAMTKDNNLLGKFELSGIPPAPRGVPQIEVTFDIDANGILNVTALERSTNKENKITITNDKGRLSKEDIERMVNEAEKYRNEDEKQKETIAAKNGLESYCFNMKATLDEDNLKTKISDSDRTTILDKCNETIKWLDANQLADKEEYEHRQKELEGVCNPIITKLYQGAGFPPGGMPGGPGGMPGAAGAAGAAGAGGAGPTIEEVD

What follows are molecules tested against V5-tagged MLF (Myeloid Leukemia Factor), from pMT-MLF-V5-His (Drosophila) (UniProt Q9NKV0) (assay: affinity purification with mass spectrometry; anti-V5 antibody coupled to sepharose (IP1) or magnetic (IP2) beads; 20 mg of proteins extracted in IP buffer (150 mM NaCl, 0.5% NP40, 50 mM Tris-HCl pH 8.0, 1 mM EGTA) from CuSO4-induced Kc167-pMT-MLF-V5 cells, parental Kc167 cells as control; nanoLC-MS/MS).

Molecule | binding
Hsc70-3 (constitutively expressed Hsp70 chaperone), endogenous (from UniProt P29844 19-656) | binds
Hsc70-4 (constitutively expressed Hsp70 chaperone), endogenous (from UniProt P11147 1-651) | binds
Squid (RNA binding protein), endogenous (protein, UniProt Q08473 1-344) MAENKQVDTEINGEDFTKDVTADGPGSENGDAGAAGSTNGSSDNQSAASGQRDDDRKLFVGGLSWETTEKELRDHFGKYGEIESINVKTDPQTGRSRGFAFIVFTNTEAIDKVSAADEHIINSKKVDPKKAKARHGKIFVGGLTTEISDEEIKTYFGQFGNIVEVEMPFDKQKSQRKGFCFITFDSEQVVTDLLKTPKQKIAGKEVDVKRATPKPENQMMGGMRGGPRGGMRGGRGGYGGRGGYNNQWDGQGSYGGYGGGYGGYGAGGYGDYYAGGYYNGYDYGYDGYGYGGGFEGNGYGGGGGGNMGGGRGGPRGGGGPKGGGGFNGGKQRGGGGRQQRHQPY | binds
